Data: article PMC9984195
These are yes or no findings as the source states them, for the method shown. In cells and extracts the contact can be indirect. These calls come from enrichment with a bait or labelling near it, and not all partners need be listed. Tags and fused reporters may be left off the sequences shown.

By UniProt entry, the sequences of proteins in these tests, tags left out.
UniProt Q45VK7: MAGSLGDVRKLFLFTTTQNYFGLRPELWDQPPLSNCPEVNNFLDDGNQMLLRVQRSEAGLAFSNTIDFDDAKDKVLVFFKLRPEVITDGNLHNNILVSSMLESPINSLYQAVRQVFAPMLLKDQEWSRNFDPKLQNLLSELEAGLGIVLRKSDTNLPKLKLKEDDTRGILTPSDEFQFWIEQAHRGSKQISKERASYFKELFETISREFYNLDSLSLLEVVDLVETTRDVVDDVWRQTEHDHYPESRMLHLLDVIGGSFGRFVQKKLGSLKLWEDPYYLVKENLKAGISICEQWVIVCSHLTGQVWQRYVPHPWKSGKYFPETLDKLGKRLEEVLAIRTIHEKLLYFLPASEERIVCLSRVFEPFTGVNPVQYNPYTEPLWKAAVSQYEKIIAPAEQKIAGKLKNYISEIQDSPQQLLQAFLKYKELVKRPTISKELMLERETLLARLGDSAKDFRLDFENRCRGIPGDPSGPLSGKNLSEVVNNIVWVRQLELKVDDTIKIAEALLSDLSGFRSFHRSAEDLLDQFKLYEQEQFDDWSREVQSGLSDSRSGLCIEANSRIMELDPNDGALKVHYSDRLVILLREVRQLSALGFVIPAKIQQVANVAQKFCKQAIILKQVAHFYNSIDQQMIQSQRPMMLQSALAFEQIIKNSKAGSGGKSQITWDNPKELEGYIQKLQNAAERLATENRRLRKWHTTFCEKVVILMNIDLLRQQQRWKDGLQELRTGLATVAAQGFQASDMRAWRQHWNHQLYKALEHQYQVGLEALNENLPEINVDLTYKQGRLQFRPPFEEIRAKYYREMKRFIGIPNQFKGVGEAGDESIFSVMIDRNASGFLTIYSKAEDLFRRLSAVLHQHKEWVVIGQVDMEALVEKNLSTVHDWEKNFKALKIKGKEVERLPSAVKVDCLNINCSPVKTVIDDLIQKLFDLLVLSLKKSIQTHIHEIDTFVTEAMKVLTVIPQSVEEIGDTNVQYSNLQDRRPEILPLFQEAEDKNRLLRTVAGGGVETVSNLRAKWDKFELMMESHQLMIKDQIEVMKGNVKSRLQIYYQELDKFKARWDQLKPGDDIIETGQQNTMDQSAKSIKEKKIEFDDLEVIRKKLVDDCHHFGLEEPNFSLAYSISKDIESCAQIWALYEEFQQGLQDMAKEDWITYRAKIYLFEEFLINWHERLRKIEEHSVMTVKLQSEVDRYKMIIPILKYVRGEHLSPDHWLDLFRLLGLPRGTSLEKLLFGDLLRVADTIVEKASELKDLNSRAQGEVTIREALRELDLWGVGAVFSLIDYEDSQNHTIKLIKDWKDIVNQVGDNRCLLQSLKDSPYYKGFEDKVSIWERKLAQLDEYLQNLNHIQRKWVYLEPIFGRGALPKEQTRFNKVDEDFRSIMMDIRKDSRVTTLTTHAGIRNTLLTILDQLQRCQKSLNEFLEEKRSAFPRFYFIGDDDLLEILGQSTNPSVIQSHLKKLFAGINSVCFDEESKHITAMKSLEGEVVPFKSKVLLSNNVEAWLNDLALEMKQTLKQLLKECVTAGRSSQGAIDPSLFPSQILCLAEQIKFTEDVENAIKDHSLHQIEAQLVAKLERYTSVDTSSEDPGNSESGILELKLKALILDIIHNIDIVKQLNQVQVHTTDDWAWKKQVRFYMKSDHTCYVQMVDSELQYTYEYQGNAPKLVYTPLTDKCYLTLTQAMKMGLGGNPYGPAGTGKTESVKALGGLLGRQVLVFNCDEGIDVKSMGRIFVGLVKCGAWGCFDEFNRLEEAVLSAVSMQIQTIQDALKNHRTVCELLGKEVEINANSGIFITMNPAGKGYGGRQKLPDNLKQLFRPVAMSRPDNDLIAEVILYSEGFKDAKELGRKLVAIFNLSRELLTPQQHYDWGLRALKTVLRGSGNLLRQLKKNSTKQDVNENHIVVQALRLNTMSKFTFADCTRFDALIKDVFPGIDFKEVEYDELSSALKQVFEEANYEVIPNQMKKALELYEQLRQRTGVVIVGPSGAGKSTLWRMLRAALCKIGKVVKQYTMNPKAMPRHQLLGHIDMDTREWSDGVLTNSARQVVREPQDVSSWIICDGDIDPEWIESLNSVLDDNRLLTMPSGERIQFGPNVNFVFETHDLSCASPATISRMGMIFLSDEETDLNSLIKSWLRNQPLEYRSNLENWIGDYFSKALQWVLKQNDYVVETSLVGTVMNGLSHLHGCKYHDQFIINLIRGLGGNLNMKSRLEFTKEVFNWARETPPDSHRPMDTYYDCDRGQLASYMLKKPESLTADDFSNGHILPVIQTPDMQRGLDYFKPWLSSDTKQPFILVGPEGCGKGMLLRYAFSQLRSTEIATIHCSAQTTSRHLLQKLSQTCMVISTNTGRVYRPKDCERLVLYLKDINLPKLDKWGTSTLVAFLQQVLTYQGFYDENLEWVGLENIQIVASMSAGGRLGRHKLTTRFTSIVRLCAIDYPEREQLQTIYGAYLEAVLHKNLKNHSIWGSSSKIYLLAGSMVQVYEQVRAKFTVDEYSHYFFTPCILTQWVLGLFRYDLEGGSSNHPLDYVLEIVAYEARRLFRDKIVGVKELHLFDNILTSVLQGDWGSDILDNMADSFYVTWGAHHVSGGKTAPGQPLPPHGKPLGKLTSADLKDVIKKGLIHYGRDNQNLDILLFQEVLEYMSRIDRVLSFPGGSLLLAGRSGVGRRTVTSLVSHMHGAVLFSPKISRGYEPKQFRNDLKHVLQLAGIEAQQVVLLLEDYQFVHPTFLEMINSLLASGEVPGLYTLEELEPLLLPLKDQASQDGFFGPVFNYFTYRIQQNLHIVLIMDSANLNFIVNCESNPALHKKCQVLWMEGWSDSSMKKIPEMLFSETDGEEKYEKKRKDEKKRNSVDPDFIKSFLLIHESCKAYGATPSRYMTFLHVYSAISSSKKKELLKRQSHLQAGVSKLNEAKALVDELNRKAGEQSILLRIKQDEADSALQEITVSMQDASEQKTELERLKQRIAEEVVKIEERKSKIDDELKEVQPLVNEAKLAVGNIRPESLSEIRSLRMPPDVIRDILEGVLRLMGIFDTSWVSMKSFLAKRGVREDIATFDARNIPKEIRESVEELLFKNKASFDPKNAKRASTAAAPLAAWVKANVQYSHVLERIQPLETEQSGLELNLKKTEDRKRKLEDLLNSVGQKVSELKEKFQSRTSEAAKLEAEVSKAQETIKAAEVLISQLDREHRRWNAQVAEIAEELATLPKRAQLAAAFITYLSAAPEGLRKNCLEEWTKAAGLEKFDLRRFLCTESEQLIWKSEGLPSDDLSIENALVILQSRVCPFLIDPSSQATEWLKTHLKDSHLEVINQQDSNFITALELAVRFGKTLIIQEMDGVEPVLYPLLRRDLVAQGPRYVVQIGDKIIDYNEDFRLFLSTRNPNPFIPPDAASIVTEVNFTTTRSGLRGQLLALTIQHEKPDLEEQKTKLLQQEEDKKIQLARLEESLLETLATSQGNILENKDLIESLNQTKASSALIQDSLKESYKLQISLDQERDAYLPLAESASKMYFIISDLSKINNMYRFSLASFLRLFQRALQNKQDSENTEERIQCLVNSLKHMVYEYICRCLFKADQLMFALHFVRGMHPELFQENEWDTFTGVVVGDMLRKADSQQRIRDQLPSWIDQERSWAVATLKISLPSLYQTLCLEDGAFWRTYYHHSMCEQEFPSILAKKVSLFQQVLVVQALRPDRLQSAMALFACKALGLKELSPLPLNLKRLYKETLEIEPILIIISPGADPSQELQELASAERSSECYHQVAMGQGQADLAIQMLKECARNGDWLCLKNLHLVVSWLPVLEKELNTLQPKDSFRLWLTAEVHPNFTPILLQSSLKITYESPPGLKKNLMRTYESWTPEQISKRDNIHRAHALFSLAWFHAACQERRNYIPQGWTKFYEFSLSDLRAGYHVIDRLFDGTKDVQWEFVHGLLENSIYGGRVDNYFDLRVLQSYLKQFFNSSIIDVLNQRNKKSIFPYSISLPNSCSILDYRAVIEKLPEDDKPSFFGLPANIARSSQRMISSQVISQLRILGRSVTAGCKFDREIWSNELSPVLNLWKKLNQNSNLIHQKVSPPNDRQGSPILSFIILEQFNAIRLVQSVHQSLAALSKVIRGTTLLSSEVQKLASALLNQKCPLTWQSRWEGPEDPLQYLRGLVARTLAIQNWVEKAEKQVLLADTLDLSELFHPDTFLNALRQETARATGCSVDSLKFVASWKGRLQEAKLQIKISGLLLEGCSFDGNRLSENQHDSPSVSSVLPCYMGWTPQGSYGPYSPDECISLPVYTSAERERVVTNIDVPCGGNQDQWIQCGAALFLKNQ
UniProt E9PY46: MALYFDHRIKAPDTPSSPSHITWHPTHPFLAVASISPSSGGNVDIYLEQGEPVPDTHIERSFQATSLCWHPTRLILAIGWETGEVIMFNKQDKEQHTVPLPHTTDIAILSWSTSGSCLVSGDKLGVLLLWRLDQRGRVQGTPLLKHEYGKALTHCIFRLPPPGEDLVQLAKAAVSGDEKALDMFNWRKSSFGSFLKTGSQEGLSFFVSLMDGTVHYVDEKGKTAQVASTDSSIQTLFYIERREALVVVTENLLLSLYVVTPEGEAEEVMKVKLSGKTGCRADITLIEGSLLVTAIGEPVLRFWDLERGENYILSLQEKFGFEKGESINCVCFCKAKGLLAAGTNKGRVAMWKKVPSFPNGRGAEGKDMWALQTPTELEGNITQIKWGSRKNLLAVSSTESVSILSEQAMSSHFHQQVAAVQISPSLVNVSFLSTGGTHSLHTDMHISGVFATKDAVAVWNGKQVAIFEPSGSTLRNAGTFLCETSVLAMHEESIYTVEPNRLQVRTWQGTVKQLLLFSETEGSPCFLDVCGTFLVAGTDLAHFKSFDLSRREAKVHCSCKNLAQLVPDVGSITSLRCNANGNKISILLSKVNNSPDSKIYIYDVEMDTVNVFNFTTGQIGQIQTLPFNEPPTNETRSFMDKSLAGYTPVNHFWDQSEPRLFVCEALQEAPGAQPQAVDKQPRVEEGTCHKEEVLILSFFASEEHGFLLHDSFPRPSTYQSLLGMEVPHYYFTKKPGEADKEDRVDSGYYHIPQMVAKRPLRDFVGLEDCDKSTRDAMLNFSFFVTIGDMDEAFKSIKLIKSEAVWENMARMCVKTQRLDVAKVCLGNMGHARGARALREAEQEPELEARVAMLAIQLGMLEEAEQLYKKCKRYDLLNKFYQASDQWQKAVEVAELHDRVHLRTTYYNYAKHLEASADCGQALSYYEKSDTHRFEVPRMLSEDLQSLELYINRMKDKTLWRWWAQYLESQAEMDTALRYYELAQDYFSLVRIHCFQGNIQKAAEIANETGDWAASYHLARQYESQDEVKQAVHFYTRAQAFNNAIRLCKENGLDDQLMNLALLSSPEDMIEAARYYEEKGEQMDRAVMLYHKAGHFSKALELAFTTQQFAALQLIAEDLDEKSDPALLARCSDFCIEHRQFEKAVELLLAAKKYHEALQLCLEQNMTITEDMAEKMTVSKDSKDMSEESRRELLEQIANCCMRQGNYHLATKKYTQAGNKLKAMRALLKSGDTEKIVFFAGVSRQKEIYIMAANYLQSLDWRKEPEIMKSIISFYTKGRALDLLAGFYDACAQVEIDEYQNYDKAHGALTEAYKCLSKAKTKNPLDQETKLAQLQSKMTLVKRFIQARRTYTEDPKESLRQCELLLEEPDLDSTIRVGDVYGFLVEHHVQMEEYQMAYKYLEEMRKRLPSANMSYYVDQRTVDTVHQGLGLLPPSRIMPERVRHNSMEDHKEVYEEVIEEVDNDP
UniProt Q61025: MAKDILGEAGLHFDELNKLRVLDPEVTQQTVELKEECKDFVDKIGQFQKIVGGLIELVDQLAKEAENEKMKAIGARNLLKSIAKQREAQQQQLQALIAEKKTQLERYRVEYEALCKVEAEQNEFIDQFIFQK

T1: Centrosomal protein of 78 kDa (Cep78), endogenous mouse testicular protein (mouse (endogenous in testis)) (UniProt Q6IRU7)
T1 sequence: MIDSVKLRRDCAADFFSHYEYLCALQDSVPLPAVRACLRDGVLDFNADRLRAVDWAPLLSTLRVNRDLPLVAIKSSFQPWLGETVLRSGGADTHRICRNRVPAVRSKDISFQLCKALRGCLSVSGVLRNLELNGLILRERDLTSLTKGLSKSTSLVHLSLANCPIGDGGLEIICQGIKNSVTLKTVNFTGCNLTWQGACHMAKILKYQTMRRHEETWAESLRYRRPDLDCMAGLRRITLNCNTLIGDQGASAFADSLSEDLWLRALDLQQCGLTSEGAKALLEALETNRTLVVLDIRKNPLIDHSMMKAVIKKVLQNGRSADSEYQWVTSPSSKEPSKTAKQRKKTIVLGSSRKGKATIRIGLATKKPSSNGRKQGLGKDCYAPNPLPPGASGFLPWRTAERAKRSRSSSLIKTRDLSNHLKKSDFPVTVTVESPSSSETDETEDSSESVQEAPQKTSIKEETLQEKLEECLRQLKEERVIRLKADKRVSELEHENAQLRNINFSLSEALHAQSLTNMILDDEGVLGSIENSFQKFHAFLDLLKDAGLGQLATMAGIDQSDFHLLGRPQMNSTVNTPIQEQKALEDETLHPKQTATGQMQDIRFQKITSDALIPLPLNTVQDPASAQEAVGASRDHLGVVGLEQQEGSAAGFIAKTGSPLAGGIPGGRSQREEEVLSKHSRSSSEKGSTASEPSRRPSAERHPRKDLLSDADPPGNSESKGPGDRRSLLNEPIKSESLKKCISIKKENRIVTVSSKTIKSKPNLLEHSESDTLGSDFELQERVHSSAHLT

B1: EH domain-containing protein 1 (protein, UniProt Q9WVK4 1-534)
chain: MFSWVSKDARRKKEPELFQTVAEGLRQLYAQKLLPLEEHYRFHEFHSPALEDADFDNKPMVLLVGQYSTGKTTFIRHLIEQDFPGMRIGPEPTTDSFIAVMHGPTEGVVPGNALVVDPRRPFRKLNAFGNAFLNRFMCAQLPNPVLDSISIIDTPGILSGEKQRISRGYDFAAVLEWFAERVDRIILLFDAHKLDISDEFSEVIKALKNHEDKIRVVLNKADQIETQQLMRVYGALMWSLGKIINTPEVVRVYIGSFWSHPLLIPDNRKLFEAEEQDLFKDIQSLPRNAALRKLNDLIKRARLAKVHAYIISSLKKEMPNVFGKESKKKELVNNLGEIYQKIEREHQISSGDFPSLRKMQELLQTQDFSKFQALKPKLLDTVDDMLANDIARLMVMVRQEESLMPSQAVKGGAFDGTMNGPFGHGYGEGAGEGIDDVEWVVGKDKPTYDEIFYTLSPVNGKITGANAKKEMVKSKLPNTVLGKIWKLADVDKDGLLDDEEFALANHLIKVKLEGHELPADLPPHLIPPSKRRHE
B2: ATP-dependent 6-phosphofructokinase, muscle type (protein, UniProt P47857 1-780)
chain: MTHEEHHAAKTLGIGKAIAVLTSGGDAQGMNAAVRAVVRVGIFTGARVFFVHEGYQGLVDGGEHIREATWESVSMMLQLGGTVIGSARCKDFREREGRLRAAHNLVKRGITNLCVIGGDGSLTGADTFRSEWSDLLNDLQKDGKITAEEATKSSYLNIVGLVGSIDNDFCGTDMTIGTDSALHRIVEIVDAITTTAQSHQRTFVLEVMGRHCGYLALVTSLSCGADWVFIPECPPDDDWEEHLCRRLSETRTRGSRLNIIIVAEGAIDKNGKPITSEDIKNLVVKRLGYDTRVTVLGHVQRGGTPSAFDRILGSRMGVEAVMALLEGTPDTPACVVSLSGNQAVRLPLMECVQVTKDVTKAMDEKRFDEAIKLRGRSFMNNWEVYKLLAHVRPPVSKGGLHTVAVMNVGAPAAGMNAAVRSTVRIGLIQGNRVLVVHDGFEGLAKGQIEEAGWSYVGGWTGQGGSKLGTKRTLPKKNLEQISANITKFNIQGLVIIGGFEAYTGGLELMEGRKQFDELCIPFVVIPATVSNNVPGSDFSIGADTALNTICTTCDRIKQSAAGTKRRVFIIETMGGYCGYLATMAGLAAGADAAYIFEEPFTIRDLQVNVEHLVQKMKTTVKRGLVLRNEKCNENYTTDFIFNLYSEEGKGIFDSRKNVLGHMQQGGSPTPFDRNFATKMGAKAMNWMSGKIKESYRNGRIFANTPDSGCVLGMRKRALVFQPVTELKDQTDFEHRIPKEQWWLKLRPILKILAKYEIDLDTSDHAHLEHISRKRSGEAAV
B3: Sperm flagellar protein 1 (protein, UniProt Q99JL1 1-234)
chain: MESSVDEEALHQLYLWVDNIPLSRPKRNLSRDFSDGVLVAELIKFYFPKMVEMHNYVPANSLQQKLSNWGHLNRKVLNKLNFSVPDDVMRKIAQCSPGVVELVLIPLRQRLEERQRRQKLGVGSLQELAPQDSSGYMDMGLPQKVRGEGAPALGEQLREGRPLASRPPGYNQALQGDPSFVLQIAEKEQELLASQETVQVLQMKVKRLEHLLQLKNVRIDDLSRRLQQAERKQR

biological target: T1, Centrosomal protein of 78 kDa (Cep78), endogenous mouse testicular protein (mouse (endogenous in testis)); assay: affinity purification with mass spectrometry; anti-Cep78 (custom antibody against p457-741 of mouse Cep78) immunoprecipitation from testicular lysates of Cep78^+/− and Cep78^−/− mice, Pierce IP lysis buffer, Pierce co-IP kit, quantitative LC-MS of silver-stained gel lanes

| Molecule | binding |
| --- | --- |
| Cytoplasmic dynein 2 heavy chain 1 (from UniProt Q45VK7 1-4306) | binds |
| Intraflagellar transport protein 140 homolog (from UniProt E9PY46 1-1464) | binds |
| Intraflagellar transport protein 20 homolog (Ift20), endogenous mouse testicular protein (from UniProt Q61025 1-132) | binds |
| B1 | binds |
| B2 | binds |
| B3 | binds |
